# Results of single-concentration screens

From ChEMBL document CHEMBL3988442, “University of Dundee, Small-Polar-MMV Screening Library” (2021).

Mtb glucose medium: 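Whole-cell growth test on Mycobacterium tuberculosis, read after 3 days in glucose-containing 7H9 medium; the read-out is not stated. Tested at 50 µM. Direction is inferred from retests: higher values go with more growth inhibition. Of about 69,000 compounds tested this way, about 760 (1.1%) reached 50% or more in at least one test.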
Mtb cholesterol medium: 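Whole-cell growth test on Mycobacterium tuberculosis, read after 4 days in a medium based on cholesterol and the lipid DPPC; the read-out is not stated. Tested at 50 µM. Direction is inferred from retests: higher values go with more growth inhibition. Of about 69,000 compounds tested this way, about 370 (0.54%) reached 50% or more in at least one test.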

Each number is a percent effect as filed. How 0% and 100% were set is not recorded. Most values in the screen are low, and negative values occur. This is an unselected part of the compounds tested. Two or more numbers in one place are separate tests of the same structure; such repeats can differ widely.

| Compound | Mtb glucose medium | Mtb cholesterol medium |
|---|---|---|
| `CC(C)NC(=O)NCCCc1cc(N)n(-c2ccccc2)n1` | -5.281% & -0.4371% | -12.77% |
| `O=C(O)C(F)(F)F.[H][C@@]12C[C@@H](C(=O)NC(C)C)C[C@@]1([H])N(Cc1cccs1)CCO2` | 21.91% & -2.317% | 12.34% |
| `CCCSc1ncc(-c2nccn2CCO)cn1` | -16.37% | -1.687% |
| `CC(C)c1noc([C@@H]2Cc3[nH]cnc3CN2C(=O)Nc2ccccc2)n1` | -77.31% & -6.275% | -10.31% |
| `Cc1cccc(OCCNC(=O)C(C)S(=O)(=O)C2CCCC2)c1` (centres undefined) | -37.57% & -1.505% | -13.96% |
| `O=C(Cc1noc(C(=O)NCCO)n1)Nc1cccc(C(F)(F)F)c1` | -7.701% & -7.646% | 9.201% |
| `O=C(C1CC1)N1CCc2[nH]cnc2C12CCN(C1CCOCC1)CC2` | -20.78% | -14.81% |
| `Cc1nc(-c2ccc(S(=O)(=O)N3CCSC3)cc2)co1` | -13.4% & 6.666% | -4.497% |
| `[H][C@]12C[C@H](CNC(=O)c3ccsc3)O[C@@]1([H])CN(C(=O)c1ccco1)C2` | -19.31% | -16.47% |
| `CCc1nc(C2CCCN2C(=O)CCCn2cccn2)no1` (centres undefined) | 24.37% | -8.733% |
| `COc1ccc(CNC[C@H]2COCc3nc4cccnc4n32)cc1` | -31.76% & 3.147% | 12.54% |
| `Cc1ccccc1CC1(C(=O)O)CCCN(c2ncccn2)C1` (centres undefined) | 19.31% | -9.609% |
| `CN1CCC(N(C)CCC(=O)N2CCC(Cc3ccc(F)cc3)CC2)C1` (centres undefined) | 75.41% | 27.7% |
| `CCN1Cc2ccccc2CC2(CCN(C(=O)N(C)C)CC2)C1=O` | 19.34% | 7.909% |
| `O=S(=O)(c1ccc(F)c(F)c1)n1cc(Cl)cn1` | 23.31% | 20.82% |
| `CC1CCN(c2ccnc3ccc(Br)cc23)CC1` | 10.98% & 15.04% | 7.573% |
| `CCC(C)NC(=O)NCCC(=O)N1CCN(c2ccccn2)CC1` (centres undefined) | 27.79% | 22.11% |
| `CCOc1ccc(C2CCCN2Cc2nnnn2C2CC2)cc1` (centres undefined) | 38.46% | 22.04% |
| `OC1(CN2CCCC2)COCCN(c2nccs2)C1` (centres undefined) | -10.68% & -7.491% | -8.932% |
| `Cc1csc(C(=O)N2CC(S(=O)(=O)C3CCCCC3)C2)c1` | 16.95% | -2.705% |
| `COc1ccc(C[C@H]2CN(C(=O)c3ccncc3)CC[C@@H]2OC)cc1.O=C(O)C(F)(F)F` | -27.32% | -19.01% |
| `[H][C@@]12CCN(Cc3ccco3)C[C@@]1([H])[C@H](C(=O)N1CCCCO1)CCO2` | 20.91% & -0.763% | 17.31% |
| `Cc1cc(=O)[nH]c(-n2nc(C)c(CCC(=O)Nc3nc(C)cs3)c2C)n1` | 2.564% | -11.73% |
| `Cc1nc(CNC(C)c2ccc(S(=O)(=O)N(C)C)cc2)no1` (centres undefined) | 4.959% & -3.996% | 5.92% |
| `Cc1cc(CCC2CN(CC3(O)CCCCC3)CCO2)ncn1` (centres undefined) | -4.874% | 5.925% |
| `C[C@]1(O)CN(Cc2ncc[nH]2)CC[C@@H]1Oc1cccc(F)c1` | 1.072% | -5.886% |
| `Cc1csc(C(Cc2ccsc2)NC(=O)CN(C)Cc2ccccn2)n1.Cl` (centres undefined) | -5.896% | 20.38% & 7.736% |
| `CN(C)c1ncnc2c1CCN(C(=O)c1cccnc1)CC2.O=C(O)C(F)(F)F` | -24.26% | -2.124% |
| `Brc1cnc(NCCCOCC2CCOC2)nc1` (centres undefined) | 15.28% | 8.208% |
| `O=C1CN(Cc2occc2C(=O)NCCc2ccc(F)cc2)CCN1` | -0.1919% & 3.811% | 9.82% |
| `COC(=O)NCCC(=O)NCC1(c2cccc(Cl)c2)CC1` | 8.293% | 2.533% |
| `CCN1CC2(CCN(CC3CCCO3)CC2)OC1=O` (centres undefined) | -13.84% & 0.2826% | -13.62% |
| `CN(C)CCNC(=O)Nc1cccc(C[S+]([O-])Cc2ccccc2)c1` (centres undefined) | 18.46% | -6.45% |
| `CNc1cc(C2CN(C(=O)c3cnn(C)c3)CCO2)nc(C)n1` (centres undefined) | 18.89% | -27.7% |
| `CCc1noc(CS(=O)(=O)C(C)c2nc(C3CC3)no2)n1` (centres undefined) | 5.301% | 23.08% |
| `Cc1nn(C)cc1-c1cc(C(F)F)nc(NC2CCCCC2)n1` | 16.05% & 19.11% | 16.62% |
| `CN1N=C(C(=O)N2CCCN(c3ncccc3C#N)CC2)CCC1=O` | -2.779% | -13.1% |
| `CN(C)S(=O)(=O)N1CCC(c2n[nH]cc2-c2ccnc(N)c2)C1` (centres undefined) | -29.29% | 1.673% & 2.762% |
| `Cc1nn(C)c(Cl)c1C1CCCN1CC(=O)NCc1ccccn1` (centres undefined) | 17.61% | -5.77% |
| `CCOc1ncccc1CNc1nnc(C)c(C)c1C#N` | -14.85% | -12.49% |
| `CCCC(NC(=O)NCc1cccc(N(C)C)n1)c1ccccn1` (centres undefined) | 10.29% | -4.444% |
| `Cc1ccc(C(=O)Nc2ccn(CCC(N)=O)n2)cc1` | -23.82% | 0.9624% & -0.5192% |
| `Cc1nc(CN2CCN(C(C)c3nc(C4CC4)no3)CC2)oc1C` (centres undefined) | -7.454% | -10.67% |
| `Cc1noc(C)c1CN1C[C@@H](NC(=O)N(C)C)[C@H](C(C)C)C1` | -1.693% | -2.075% |

Some entries from above, unchanged:

Compound	Mtb glucose medium	Mtb cholesterol medium
CC(C)c1noc([C@@H]2Cc3[nH]cnc3CN2C(=O)Nc2ccccc2)n1	-77.31% & -6.275%	-10.31%
C[C@]1(O)CN(Cc2ncc[nH]2)CC[C@@H]1Oc1cccc(F)c1	1.072%	-5.886%
COc1ccc(CNC[C@H]2COCc3nc4cccnc4n32)cc1	-31.76% & 3.147%	12.54%